In patent publication US8962322B2, “Enhancers of induced pluripotent stem cell reprogramming” (City of Hope, priority 2012, dated 2015):
Some entries share one result that the patent states for a list of compounds.

Test system: mouse embryonic fibroblasts (MEFs)
Test: iPSC derivation from 4F (OSKM)-transduced MEFs in mouse ESC media
Type: cell-based
Conditions: day 18, compound 1 μM for 7 days from day 0
Description: The generation of iPSCs is a gradual process with relatively low efficiency. Since Oct4 is central to the reprogramming process (35, 36, 38), it was hypothesized that compounds that activate Oct4 transcription may facilitate iPSC generation by enhancing reprogramming efficiency. Reprogramming of mouse embryonic fibroblasts (MEFs) was performed with the 4F reprogramming quartet Oct4, Sox2, Klf4, and c-Myc, along with solvent control, OAC1 or its structural analogs OAC2 and OAC3. The same number of starting MEFs and the same viral stocks were used for each treatment. Two days after viral transduction, the 4F-transduced cells were seeded onto feeder cells in mouse ESC culture media, and this day was designated as day 0 (FIG. 2D). Compound treatment started on day 0 and lasted for 7 days. By counting the number of clones with ESC-like morphology at day 18, both OAC1 and its analogs OAC2 and OAC3 enhanced the 4F-induced reprogramming efficiency considerably. The number of colonies with ESC-like morphology (FIG. 2E) increased 2-fold or more in 4F plus OAC (4F+OAC) treatment, compared to the 4F treatment alone (FIG. 2F, Table 3).
iPSC Derivation in Mouse ESC Media: OG2/R26MEFs were seeded onto […] at the density of 4×10^4 cells per well in DMEM medium with 10% FBS, 0.1 mM non-essential amino acids (NEAA), and 0.1 mM L-glutamine, 24 hr before transduction. Freshly concentrated viruses of the four factors, Oct4, Sox2, c-Myc, and Klf4, were added to the cells. Two days after viral infection, the viral-transduced OG2/R26MEFs were split into new 6-well plates with irradiated MEF feeder cells and cultured in mouse ESC culture medium containing 15% ESC qualified FBS, 2 mM L-glutamine, 0.1 mM 2-mercaptoethanol, 0.1 mM NEAA, 1 mM sodium pyruvate and 1000 U/ml of leukemia inhibitory factor (LIF), and this day was defined as day 0. 1 μM of each compound (OAC1, OAC2, and OAC3) was added to the 4F-transduced cells at day 0 and treatment was continued for 1 week. When iPSC colonies emerged, these colonies were picked for expansion on irradiated MEF feeders in mouse ESC medium.

Row | SMILES | increase in number of colonies with ESC-like morphology, 4F+OAC compared to 4F alone
1 | O=C(Nc1cc2cc[nH]c2cn1)c1ccccc1 [OAC1, N-(1H-6-azaindol-5-yl)benzamide] | ≥ 2 fold
2 | O=C(Nc1ccc2[nH]ccc2c1)c1ccccc1 [OAC2, N-(1H-indol-5-yl)benzamide] | ≥ 2 fold
3 | O=C(Nc1ccc2[nH]ccc2c1)c1ccc(F)cc1 [OAC3, 4-fluoro-N-(1H-indol-5-yl)benzamide] | ≥ 2 fold
